The structures given here were assigned with low confidence; some may be wrong.
Assay: Thermogravimetric (TG) measurement, 10% weight loss temperature
Conditions: temperature increased at 10°C/min
Experimental: Here, the 10% weight loss temperature in TG measurement means a temperature at a time point at which, in TG measurement when the temperature of the antibacterial agent having a paraben structure is increased at 10°C/min, the weight has decreased by 10% by weight relative to the weight before the temperature increase (that is, the weight of the antibacterial agent having a paraben structure has become 90% relative to the weight before the temperature increase). Hereinafter, in the present specification, the 10% weight loss temperature in TG measurement may be referred to as "T10".

SMILES	T10 (10% weight loss temperature in TG measurement)
CCCCOC(=O)c1ccc(O)cc1	T10: 193.4 °C
CCCOC(=O)c1ccc(O)cc1	T10: 185.1 °C

— patent publication EP4840921A1, “HOT MELT ADHESIVE, METHOD FOR PRODUCING SAME, AND COATING METHOD” (dated 2026)
